Target: T1, Recombinant human liver GK1 (GST-GK) (Homo sapiens, UniProt P35557)
T1 construct: made in house; host or cells: E. coli
T1 sequence (P35557 1-466 isoform P35557-2): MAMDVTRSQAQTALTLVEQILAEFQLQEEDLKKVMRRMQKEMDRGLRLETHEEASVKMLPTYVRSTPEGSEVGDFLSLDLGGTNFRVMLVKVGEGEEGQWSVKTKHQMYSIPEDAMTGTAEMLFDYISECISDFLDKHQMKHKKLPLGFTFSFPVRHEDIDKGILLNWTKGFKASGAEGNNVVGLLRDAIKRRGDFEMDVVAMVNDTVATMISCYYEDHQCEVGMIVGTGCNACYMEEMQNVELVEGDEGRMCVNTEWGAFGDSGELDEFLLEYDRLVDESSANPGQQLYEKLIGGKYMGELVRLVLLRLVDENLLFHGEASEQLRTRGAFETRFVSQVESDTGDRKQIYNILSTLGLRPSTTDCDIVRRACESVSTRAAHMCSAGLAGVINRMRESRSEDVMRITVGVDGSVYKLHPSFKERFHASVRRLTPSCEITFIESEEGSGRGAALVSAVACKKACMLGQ
Experiment: Glucokinase in vitro assay (G6PDH-coupled NADH generation, OD340)
Format: biochemical
Conditions: 5 mM D-glucose, 30° C., pH 7.1, 10% DMSO
Protocol: Glucokinase In Vitro Assay Protocol: Glucokinase (GK) was assayed by coupling the production of glucose-6-phosphate to the generation of NADH with glucose-6-phosphate dehydrogenase (G6PDH, 0.75-1 k units/mg; Boehringer Mannheim, Indianapolis, Ind.) from Leuconostoc mesenteroides as the coupling enzyme (Scheme 2):
Recombinant human liver GK1 was expressed in E. coli as a glutathione S-transferase fusion protein (GST-GK) [Liang et al, 1995] and was purified by chromatography over a glutathione-Sepharose 4B affinity column using the procedure provided by the manufacturer (Amersham Pharmacia Biotech, Piscataway, N.J.).
The assay was conducted at 30° C. in a flat bottom 96-well tissue culture plate from Costar (Cambridge, Mass.) with a final incubation volume of 120 μL. […]
After addition of enzyme, the increase in optical density (OD) at 340 nm was monitored spectrophotometrically to determine the rate of change (OD340 per min). The GK activity (OD340/min) in control wells (10% DMSO minus GK activators) was compared with the activity in wells containing test GK activators, and the concentration of activator that produced a 50% increase in the activity of GK, i.e., the SC1.5, was calculated. […]

- SC1.5 average (concentration of activator that produced a 50% increase in the activity of GK): 7.484 µM
Compound: COc1cnn(C(CC2CCCC2)C(=O)Nc2ccn(CC(C)(C)O)n2)c(=O)c1 (stereo not shown) [Example 81, 3-Cyclopentyl-N-[1-(2-hydroxy-2-methyl-propyl)-1H-pyrazol-3-yl]-2-(4-methoxy-6-oxo-6H-pyridazin-1-yl)-propionamide]

From patent publication US8258134B2, “Pyridazinone glucokinase activators” (Hoffmann-La Roche Inc., priority 2008, dated 2012)
